Data from EP0318620A1, “Herbicidal sulfonamides” (E.I. DU PONT DE NEMOURS AND COMPANY, priority 1987, dated 1989).
At least one structure is not confirmed: it was looked up by name or label, or the drawing left a doubt.

Assays:
Assay in all cases: Test A greenhouse herbicide test, pre- and postemergence
cocklebur = assay type: in vivo, Xanthium pensylvanicum; details: PREEMERGENCE, rated after sixteen days
Excerpt: (§1) Seeds of crabgrass (Digitaria spp.), barnyardgrass (Echinochloa crusgalli), cheatgrass (Bromus Secalinus), giant foxtail (Setaria faberii), wild oats (Avena fatua), velvetleaf (Abutilon theophrasti), morningglory (Ipomoea spp. , cocklebur (Xanthium pensylvanicum). sorghum, corn, barley, soybean, sugarbeet, cotton, rice, wheat and purple nutsedge (Cyperus rotundus) tubers were planted and treated preemergence with the test chemicals dissolved in a non-phytotoxic solvent. At the same time, these crop and weed species were treated with a soil/foliage application. At the time of treatment, the plants ranged in height from 2 to 18 cm. Treated plants and controls were maintained in a greenhouse for sixteen days, after which all species were compared to controls and visually rated for response to treatment. The ratings, summarized in Table A, are based on a numerical scale extending from 0 = no injury, to 10 = complete kill. The accompanying descriptive symbols have the following meanings: • B = burn; • C = chlorosis/necrosis; • D = defoliation; • E = emergence inhibition; • G = growth retardation; • H = formative effect; • U = unusual pigmentation; • X = axillary stimulation; • S = albinism; and • 6Y = abscised buds or flowers.

crabgrass = assay type: in vivo, Digitaria spp.; details: rated after sixteen days
Excerpt: as §1

barnyardgrass = assay type: in vivo, Echinochloa crusgalli; details: PREEMERGENCE; RATE 0.05 KG/HA; rated after sixteen days
Excerpt: as §1

wild oats = assay type: in vivo, Avena fatua; details: rated after sixteen days
Excerpt: as §1

wheat = assay type: in vivo; details: rated after sixteen days
corn = assay type: in vivo; details: rated after sixteen days
Excerpt: as §1

cotton = assay type: in vivo; details: PREEMERGENCE; RATE 0.05 KG/HA; rated after sixteen days
Excerpt: as §1

rice = assay type: in vivo; details: PREEMERGENCE; RATE 0.05 KG/HA; rated after sixteen days
Excerpt: as §1

sorghum = assay type: in vivo; details: rated after sixteen days
Excerpt: as §1

soybean = assay type: in vivo; details: rated after sixteen days
Excerpt: as §1

sugarbeet = assay type: in vivo; details: PREEMERGENCE, rated after sixteen days
Excerpt: as §1

cheatgrass = assay type: in vivo, Bromus Secalinus; details: POSTEMERGENCE; RATE 0.05 KG/HA; rated after sixteen days
Excerpt: as §1

giant foxtail = assay type: in vivo, Setaria faberii; details: PREEMERGENCE; RATE 0.05 KG/HA; rated after sixteen days
Excerpt: as §1

barley = assay type: in vivo; details: rated after sixteen days

CCOC(=O)c1c(CC#N)cccc1S(=O)(=O)NC(=O)Nc1nc(OC)cc(OC)n1 [Compound 3, 2-(cyanomethyl)-6 [[(4,6-dimethoxypyrimidin-2-yl)-aminocarbonyl]aminosulfonyl]benzoic acid, ethyl ester]
COCKLEBUR visual rating of response to treatment (cocklebur; RATE 0.01 KG/HA): 3C,7H
COCKLEBUR visual rating of response to treatment (cocklebur; RATE 0.05 KG/HA): 3C,8G
CRABGRASS visual rating of response to treatment (crabgrass; POSTEMERGENCE, RATE 0.01 KG/HA): 2C,7G
CRABGRASS visual rating of response to treatment (crabgrass; POSTEMERGENCE, RATE 0.05 KG/HA): 2C,8G
CRABGRASS visual rating of response to treatment (crabgrass; PREEMERGENCE, RATE 0.05 KG/HA): 2C,5G
BARNYARD GRASS visual rating of response to treatment (barnyardgrass): 2C,9H
WILD OATS visual rating of response to treatment (wild oats; POSTEMERGENCE, RATE 0.01 KG/HA): 3C,6G
WILD OATS visual rating of response to treatment (wild oats; POSTEMERGENCE, RATE 0.05 KG/HA): 2C,9G
WILD OATS visual rating of response to treatment (wild oats; PREEMERGENCE, RATE 0.05 KG/HA): 2C,7G
WHEAT visual rating of response to treatment (wheat; POSTEMERGENCE, RATE 0.01 KG/HA): 2C,9G
WHEAT visual rating of response to treatment (wheat; POSTEMERGENCE, RATE 0.05 KG/HA): 2C,9G
WHEAT visual rating of response to treatment (wheat; PREEMERGENCE, RATE 0.01 KG/HA): 2C,7G
WHEAT visual rating of response to treatment (wheat; PREEMERGENCE, RATE 0.05 KG/HA): 1C,8G
CORN visual rating of response to treatment (corn; POSTEMERGENCE, RATE 0.05 KG/HA): 6U,9C
CORN visual rating of response to treatment (corn; PREEMERGENCE, RATE 0.01 KG/HA): 2C,8H
COTTON visual rating of response to treatment (cotton): 2C,8G
RICE visual rating of response to treatment (rice): 2C,9H
SORGHUM visual rating of response to treatment (sorghum; POSTEMERGENCE, RATE 0.01 KG/HA): 6C,9G
SORGHUM visual rating of response to treatment (sorghum; PREEMERGENCE, RATE 0.01 KG/HA): 2C,7H
SORGHUM visual rating of response to treatment (sorghum; PREEMERGENCE, RATE 0.05 KG/HA): 3C,9H
SOYBEAN visual rating of response to treatment (soybean; POSTEMERGENCE, RATE 0.01 KG/HA): 6C,9G
SOYBEAN visual rating of response to treatment (soybean; PREEMERGENCE, RATE 0.05 KG/HA): 3C,8H
SUGAR BEETS visual rating of response to treatment (sugarbeet; RATE 0.01 KG/HA): 2C,5H
SUGAR BEETS visual rating of response to treatment (sugarbeet; RATE 0.05 KG/HA): 2C,9G
CHEATGRASS visual rating of response to treatment (cheatgrass): 2C,8G
GIANT FOXTAIL visual rating of response to treatment (giant foxtail): 2C,8H
BARLEY visual rating of response to treatment (barley; POSTEMERGENCE, RATE 0.01 KG/HA): 5C,9G
BARLEY visual rating of response to treatment (barley; POSTEMERGENCE, RATE 0.05 KG/HA): 6C,9G
BARLEY visual rating of response to treatment (barley; PREEMERGENCE, RATE 0.01 KG/HA): 2C,9G
BARLEY visual rating of response to treatment (barley; PREEMERGENCE, RATE 0.05 KG/HA): 2C,8G
